From article PMC8073056

Chains of the proteins cited; added tags and fusions are not shown.
UniProt O95271: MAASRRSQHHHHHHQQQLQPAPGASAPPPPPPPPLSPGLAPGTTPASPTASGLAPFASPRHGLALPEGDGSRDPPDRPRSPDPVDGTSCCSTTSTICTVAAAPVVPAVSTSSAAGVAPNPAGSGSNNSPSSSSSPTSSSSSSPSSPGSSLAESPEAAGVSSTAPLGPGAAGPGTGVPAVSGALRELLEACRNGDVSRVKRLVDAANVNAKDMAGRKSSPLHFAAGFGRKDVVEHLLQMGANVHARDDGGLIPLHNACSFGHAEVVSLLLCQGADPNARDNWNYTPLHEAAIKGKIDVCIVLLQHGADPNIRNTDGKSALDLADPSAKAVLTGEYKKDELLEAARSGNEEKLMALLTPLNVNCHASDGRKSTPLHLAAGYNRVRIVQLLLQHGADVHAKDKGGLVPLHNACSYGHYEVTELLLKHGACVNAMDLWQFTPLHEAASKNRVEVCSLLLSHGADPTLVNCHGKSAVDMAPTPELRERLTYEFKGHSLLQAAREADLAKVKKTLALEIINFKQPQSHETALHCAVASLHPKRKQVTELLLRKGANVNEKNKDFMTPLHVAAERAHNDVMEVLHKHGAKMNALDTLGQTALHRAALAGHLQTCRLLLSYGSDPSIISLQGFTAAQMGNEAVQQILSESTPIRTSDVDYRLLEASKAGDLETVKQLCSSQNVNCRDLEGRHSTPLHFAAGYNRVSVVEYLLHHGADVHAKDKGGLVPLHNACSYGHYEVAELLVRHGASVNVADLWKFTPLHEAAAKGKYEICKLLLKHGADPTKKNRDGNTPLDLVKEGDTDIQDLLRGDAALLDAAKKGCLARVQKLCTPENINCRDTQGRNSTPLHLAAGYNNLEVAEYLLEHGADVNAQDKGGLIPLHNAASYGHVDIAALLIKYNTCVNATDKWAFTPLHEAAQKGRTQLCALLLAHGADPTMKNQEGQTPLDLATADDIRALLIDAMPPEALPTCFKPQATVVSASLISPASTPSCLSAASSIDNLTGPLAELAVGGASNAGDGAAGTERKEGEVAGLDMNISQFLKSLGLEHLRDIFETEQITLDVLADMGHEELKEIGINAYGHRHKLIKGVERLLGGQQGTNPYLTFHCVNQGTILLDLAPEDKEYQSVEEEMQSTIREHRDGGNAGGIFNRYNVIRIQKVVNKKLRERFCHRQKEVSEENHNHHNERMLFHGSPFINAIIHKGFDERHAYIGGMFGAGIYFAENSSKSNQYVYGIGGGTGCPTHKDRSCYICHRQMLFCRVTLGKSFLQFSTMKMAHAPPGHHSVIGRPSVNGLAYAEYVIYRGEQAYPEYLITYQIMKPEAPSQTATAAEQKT

Molecular target: His-PC-Arpin (Protein C-tagged human Arpin, wild type) (human) (UniProt Q7Z6K5)
Experiment: affinity purification with mass spectrometry; His-PC-Arpin immunoprecipitated on HPC4-coupled beads from lysate of stable 293 cells; 50 mM Hepes pH 7.7, 150 mM NaCl, 1 mM CaCl2, 1% NP40, 0.5% Na deoxycholate, 0.1% SDS; 3 h at 4 °C; silver staining, specific bands identified by LC-MS/MS; control: cell line with the empty plasmid

- binding: binds
Substance: Tankyrase 1 (endogenous, 293 and 293T cells) (from UniProt O95271 1-1327) (enzyme)

These are yes or no findings as the source states them, for the method shown. Binding seen in cells or lysates may run through a third protein. These calls come from enrichment with a bait or labelling near it, and not all partners need be listed.
